Assay results: article PMC11036628
No constants are given. Whether binding was seen depends on the method and setting. Binding seen in cells or lysates may run through a third protein. Some entries that bind do so weakly or less than the wild type.

Sequences of proteins named here, by UniProt entry; tags and fusion partners are left off.
UniProt Q2TBA3: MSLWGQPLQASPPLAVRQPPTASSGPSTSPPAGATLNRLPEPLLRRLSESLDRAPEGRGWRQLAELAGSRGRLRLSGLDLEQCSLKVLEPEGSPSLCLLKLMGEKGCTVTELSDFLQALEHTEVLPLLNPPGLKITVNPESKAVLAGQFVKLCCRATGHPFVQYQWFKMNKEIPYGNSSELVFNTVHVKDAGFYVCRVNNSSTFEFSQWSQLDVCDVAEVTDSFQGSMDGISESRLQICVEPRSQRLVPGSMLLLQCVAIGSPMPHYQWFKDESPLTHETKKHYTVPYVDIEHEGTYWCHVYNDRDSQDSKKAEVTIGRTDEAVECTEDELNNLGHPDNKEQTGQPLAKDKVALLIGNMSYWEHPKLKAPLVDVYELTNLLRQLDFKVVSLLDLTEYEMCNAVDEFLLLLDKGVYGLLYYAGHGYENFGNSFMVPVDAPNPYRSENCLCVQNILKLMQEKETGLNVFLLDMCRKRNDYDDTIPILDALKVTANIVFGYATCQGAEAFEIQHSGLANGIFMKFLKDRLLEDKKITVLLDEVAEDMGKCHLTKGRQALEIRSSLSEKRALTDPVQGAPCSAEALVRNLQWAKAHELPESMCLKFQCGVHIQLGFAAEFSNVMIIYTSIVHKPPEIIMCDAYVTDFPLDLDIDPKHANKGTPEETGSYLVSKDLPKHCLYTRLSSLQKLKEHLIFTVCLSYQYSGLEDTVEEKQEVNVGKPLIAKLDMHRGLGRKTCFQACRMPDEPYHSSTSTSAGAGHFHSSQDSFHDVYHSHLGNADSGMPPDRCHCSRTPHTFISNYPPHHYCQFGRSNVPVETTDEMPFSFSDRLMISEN

Target: T1, Caspase activation and recruitment domain-containing protein 9 (mouse (endogenous in bone marrow-derived dendritic cells)) (UniProt A2AIV8)
T1 sequence: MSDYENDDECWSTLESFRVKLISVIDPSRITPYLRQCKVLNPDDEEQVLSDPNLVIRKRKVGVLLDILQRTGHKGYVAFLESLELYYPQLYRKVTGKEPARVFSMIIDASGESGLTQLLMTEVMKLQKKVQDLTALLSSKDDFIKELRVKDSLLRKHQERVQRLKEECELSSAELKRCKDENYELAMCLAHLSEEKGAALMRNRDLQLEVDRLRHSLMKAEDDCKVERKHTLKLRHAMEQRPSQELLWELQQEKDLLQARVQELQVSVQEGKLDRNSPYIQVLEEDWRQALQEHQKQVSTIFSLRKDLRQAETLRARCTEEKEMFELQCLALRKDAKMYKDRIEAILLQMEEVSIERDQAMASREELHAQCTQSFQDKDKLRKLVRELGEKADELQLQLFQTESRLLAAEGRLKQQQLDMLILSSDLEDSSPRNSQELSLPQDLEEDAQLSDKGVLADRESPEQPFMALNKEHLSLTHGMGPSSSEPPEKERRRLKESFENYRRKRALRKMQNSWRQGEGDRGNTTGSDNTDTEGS
Assay: co-IP; mBMDCs lysed in RIPA buffer, pre-cleared, anti-CARD9 antibody overnight at 4 °C, Protein G-Sepharose; blots for Bcl10 and MALT1; tumour-conditioned cells with or without NLGP, Laminarin, Dectin-1 siRNA, control siRNA

With “Mucosa-associated lymphoid tissue lymphoma translocation protein 1 (from UniProt Q2TBA3 1-832)” the binding was “binds”.

B1: B cell lymphoma/leukemia 10 (protein, UniProt Q9Z0H7 1-233)
chain: MEAPAPSLTEEDLTEVKKDALENLRVYLCEKIIAERHFDHLRAKKILSREDTEEISCRTSSRKRAGKLLDYLQENPRGLDTLVESIRREKTQSFLIQKITDEVLKLRNIKLEHLKGLKCSSCEPFAAGATNNLSRCNSDESNLSEKQRASTVMYHPEGESSTAPFFSMASSLNLPVLEVGRTENSSFSSATLPRPGDPGAPPLPPDLRLEEGGSCGNSSEMFLPLRSRALSRQ
With B1 the binding was “binds”.
